# PubChem BioAssay AID1347076 (National Center for Advancing Translational Sciences (NCATS), 2019)
# Several values for one entry are separate records, joined by “and”; a condition that tells them apart may be missing. Identical values can stand only once. About 13,000 (3.2%) of roughly 400,000 compounds were called active. Inconclusive means that the source gave no clear call. Such entries were picked first, then a sample of the others. Calls come from the whole dose curve; as a rule, active = well fitted cell-killing curve with a large enough effect; inconclusive = small, poorly fitted or top-dose-only effect, or effect the other way; inactive = flat fitted curve, though single readings scatter. Where the call is inconclusive, the potency comes from a doubtful curve fit.
# Assay: qHTS assay for MDR1-selective chemotherapeutics: Primary screen using the drug-selected MDR subline cells KB-V1; note: nearly all actives have a fitted effect of over 60% in size
# Conditions: KB-V1 MDR cells viability, CellTiter-Glo, 72 h; activity change, negative = cytotoxicity: at 46.1 µM (top of the series)
# In short: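 qHTS viability screen in drug-selected KB-V1 MDR cells: 72 h compound treatment at 37 degrees C, ATP luminescence end point.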
# % is set by controls: 0 for no effect and ±100 for the full control effect; potency is the fitted concentration of half-maximal effect.
SMILES,Potency,"activity change, negative = cytotoxicity"
COc1cccc(OC)c1NC(=O)c1ccc(-c2cc(Cl)ccc2Cl)o1,"inconclusive: 20.6 µM [cytotoxic, single point]",
O=C1CC(c2ccccc2)=C(c2ccccc2)C1c1ccccc1 (configuration not stated),active: 10.3 µM,
S=c1nc[nH]c2nc[nH]c12,active: 2.31 µM and active: 1.16 µM,
Cc1nc(N2CCCCC2)c2c(C)c(C(=O)Nc3ccccc3C(F)(F)F)sc2n1,,inactive: 8.43%
Cc1ccc(CNC(=O)c2ccc3c(=O)n(-c4ccccc4)c(=O)[nH]c3c2)cc1,,inactive: 22.3%
CC(=O)c1ccc(N2CCN(Cc3cc(=O)n4c(-c5ccccc5)csc4n3)CC2)cc1,,inactive: -15.1%
O=C(Cn1cnc2c(nnn2Cc2ccc(F)cc2)c1=O)Nc1ccccc1,,inactive: 14.3%
O=C(N/N=C/c1ccc([N+](=O)[O-])o1)c1ccc2c(c1)OCO2,"inconclusive: 18.4 µM [cytotoxic, partial curve]",
Cc1nc2nc(SCC(=O)NCCc3ccc(Cl)cc3)nn2c(C)c1Cc1ccccc1,"inconclusive: 32.6 µM [cytotoxic, single point]",
CCOC(CNc1cc(C)nc2c(-c3ccccc3OC)c(C)nn12)OCC,"inconclusive: 0.13 µM [cytotoxic, full curve]",
COc1ccc2[nH]c3c(c2c1)CCN1C(=O)C(CC(=O)NCCc2ccccn2)C[C@H](C(=O)N2CCCCC2)[C@@]31CCc1ccccc1 (some centres not stated),,inactive: -5.17%
COc1ccc(NC(=O)CSc2nnnn2C)c([N+](=O)[O-])c1,,inactive: -0.0516%
CCc1ccc(C2N(c3ccc(OC)cc3)C(=O)C3CCCN32)cc1 (configuration not stated),"inconclusive: 29.1 µM [rising, single point]",
O=C(CCN1CCN(c2ccc(Cl)cc2)CC1)Nc1nccs1,"inconclusive: 29.1 µM [cytotoxic, partial curve, poor fit]",
O=C(Nc1ccncc1)c1cc(-c2ccccc2)nc2ccccc12,"inconclusive: 18.4 µM [cytotoxic, single point]",
CCN1CCc2c(sc(NC(=O)c3ccc(S(=O)(=O)N4CCOCC4)cc3)c2C(N)=O)C1,,inactive: -1.06%
O=C(CN1c2cccc3cccc(c23)S1(=O)=O)N1CCCCC1,,inactive: 28.6%
Cc1cc(NC(=O)CCC(=O)N(c2ccccc2)C(C(=O)NC2CCCC2)c2ccccc2)no1 (configuration not stated),"inconclusive: 14.6 µM [cytotoxic, partial curve, poor fit]",
COc1ccc(C2=NN(C(=O)CN3CCCCC3)C(c3ccc(C)cc3)C2)cc1 (configuration not stated),"inconclusive: 9.2 µM [cytotoxic, partial curve]",
COc1ccc(OCC(=O)Nc2ccc(S(=O)(=O)N3CCOCC3)cc2)cc1,,inactive: 5.08%
Cc1cccn2c(=O)c3cc(C(=O)NCc4ccccc4)c(=N)n(CCOCCO)c3nc12,,inactive: 16.4%
Cc1cc([N+](=O)[O-])c(C(C)(C)C)cc1N,,inactive: 15.9%
O=C(CCSc1nc(-c2ccco2)cc(C(F)(F)F)n1)N1CCN(c2ccccn2)CC1,"inconclusive: 20.6 µM [cytotoxic, single point]",

SMILES,Potency,"activity change, negative = cytotoxicity"
O=C(c1ccc(S(=O)(=O)c2ccccc2Cl)c([N+](=O)[O-])c1)N1CCN(Cc2ccccc2)CC1,active: 2.31 µM,
CC(=O)C1=C(C)Nc2ncnn2C1c1ccc(Br)cc1 (configuration not stated),"inconclusive: 20.6 µM [rising, single point]",
NC(=O)c1ccccc1N=Cc1ccc2ccccc2c1,"inconclusive: 29.1 µM [cytotoxic, single point]",
c1ccc(CCCc2nc(-c3ccccn3)no2)cc1,,inactive: -15.4%
O=C(c1ccc(-n2c(SCc3cccc(F)c3)nc3ccccc3c2=O)cc1)N1CCOCC1,"inconclusive: 29.1 µM [cytotoxic, partial curve, poor fit]",
C[C@@H]1CCCCO[C@H](CN(C)C(=O)c2ccccc2)[C@@H](C)CN([C@H](C)CO)C(=O)c2cc(NC(=O)c3ccncc3)ccc2O1,"inconclusive: 13 µM [rising, partial curve]",
CCC(C)NC(=O)C(=O)Nc1c2c(nn1-c1ccccc1)CS(=O)(=O)C2 (configuration not stated),,inactive: 0.268%
Cc1cccc(N=Cc2[nH]c3ccc(Br)c(Cl)c3c2O)c1,"inconclusive: 29.1 µM [cytotoxic, single point]",
O=C(/C=C/c1ccc(S(=O)(=O)N2CCOCC2)cc1)Nc1ccc(F)c(F)c1F,active: 20.6 µM,
COc1ccc(CNC(=O)c2cc3c(s2)-c2ccccc2OC3)cc1,"inconclusive: 18.4 µM [cytotoxic, single point]",
Cc1ccc(CN2CCN(/N=C/c3cc(Br)ccc3O)CC2)cc1,"inconclusive: 18.4 µM [cytotoxic, single point]",
CCOc1ccc(-n2c(=S)sc3c(=O)n(-c4ccccc4)c(SCC(=O)O)nc32)cc1,"inconclusive: 29.1 µM [rising, single point]",
COc1cccc(NC(=O)CN(Cc2ccccc2)S(C)(=O)=O)c1,"inconclusive: 20.6 µM [cytotoxic, partial curve, poor fit]",
Cc1ccc2[nH]c(CCN(C)C)c(CN3CCOCC3)c2c1,"inconclusive: 29.1 µM [rising, single point]",
CC1CCc2c(sc3nc(C(C)(C)C)nc(N4CCN(C(=O)CCl)CC4)c23)C1 (configuration not stated),"inconclusive: 29.1 µM [cytotoxic, single point]",
CC1CCC(NC(=O)CCN2C(=O)C3C4C=CC(C4)C3C2=O)CC1 (configuration not stated),"inconclusive: 18.4 µM [rising, single point]",
CCOC(=O)c1c(NC(C)=O)c2c3c(sc2n1Cc1nc(-c2ccccc2C)oc1C)CCCC3,"inconclusive: 25.9 µM [cytotoxic, single point]",
O=C(Nc1ccccc1N1CCCC1)C1CCN(S(=O)(=O)c2ccccc2C(F)(F)F)CC1,"inconclusive: 18.4 µM [cytotoxic, single point]",
Cc1nc(C)n(C(C)CNC(=O)c2ccco2)n1 (configuration not stated),"inconclusive: 29.1 µM [cytotoxic, single point]",
Cc1ccc(NC(=O)CN2C(=O)C3C4C=CC(C4)C3C2=O)cc1 (configuration not stated),"inconclusive: 3.26 µM [cytotoxic, partial curve, poor fit]",
COc1ccccc1NC(=O)CCC(=O)OCc1ccc([N+](=O)[O-])cc1,"inconclusive: 23.1 µM [rising, single point]",
CC(C)CC1NC(=O)c2cccnc2-n2c1nc1cc(F)c(F)cc1c2=O (configuration not stated),,inactive: -17.6%
CCc1nc2c(OCC(=O)C(C)(C)C)cccn2c1N(C)C(=O)C(C)C,,inactive: -6.77%

SMILES,Potency,"activity change, negative = cytotoxicity"
Cn1c(SCc2nc(-c3ccc(Cl)cc3)no2)nnc1-c1cccs1,,inactive: -3.63%
O=C(CN1C(=O)CCSc2ccccc21)Nc1ccccc1F,"inconclusive: 18.4 µM [cytotoxic, partial curve, poor fit]",
O=C(Nc1cccc(F)c1)N1CCCC(CNS(=O)(=O)Cc2ccccc2)C1 (configuration not stated),"inconclusive: 29.1 µM [cytotoxic, partial curve, poor fit]",
CCOC(=O)CSC1=C(C#N)C(c2ccccc2OC)CC(=O)N1 (configuration not stated),"inconclusive: 25.9 µM [cytotoxic, single point]",
Cc1c(Cl)c([N+](=O)[O-])nn1CCCC(=O)NC(C)c1ccccc1 (configuration not stated),"inconclusive: 10.3 µM [cytotoxic, partial curve, poor fit]",
CC(C)N1CCc2c(sc(NC(=O)c3cc(-c4cccs4)nc4ccccc34)c2C(N)=O)C1,,inactive: -11.3%
CCC1CCC(C(=O)NC(CCSC)C(=O)NCCc2ccc(S(N)(=O)=O)cc2)CC1 (configuration not stated),"inconclusive: 2.59 µM [rising, full curve, poor fit]",
COC(=O)c1cccnc1-n1c(=O)c2cccnc2n(Cc2ccc([N+](=O)[O-])cc2)c1=O,"inconclusive: 7.31 µM [cytotoxic, partial curve]",
CC(CC(=O)Nc1ccc(Br)cc1F)S(=O)(=O)c1ccc2c(c1)NC(=O)CO2 (configuration not stated),"inconclusive: 29.1 µM [rising, single point]",
COc1ccc(NC(=O)C(=O)NCC(=O)Nc2cc(OC)ccc2OC)cc1,"inconclusive: 16.4 µM [cytotoxic, partial curve, poor fit]",
CCc1ccc(CNC(=O)CN2C(=O)c3cccnc3Oc3ccc(C)cc32)cc1,,inactive: 15.7%
CCSc1nnc(NC(=O)CSc2nc3c(c(=O)n2-c2ccccc2OC)SCC3)s1,,inconclusive: -14.4%
CCOC(=O)[C@]12CCCC=C1N(Cc1ccc3c(c1)OCO3)C(=O)[C@H](CC(=O)NCc1cccc(C(F)(F)F)c1)C2,"inconclusive: 18.4 µM [cytotoxic, single point]",
CN(C)c1cccc(CNC(=O)c2csc([C@H]3C[C@H](O)[C@@H](CO)O3)n2)c1,,inactive: 5.23%
CC(C)(C)c1ccc(/C=N/N2C(=O)CSC2=S)cc1,,inactive: 17.5%
O=C(Oc1c(CN2CCOCC2)cc(Cl)c2cccnc12)c1ccccc1F,"inconclusive: 18.4 µM [cytotoxic, partial curve, poor fit]",
COc1ccc(-c2ccc(CCC(=O)O)n2-c2ccccc2OC)cc1,"inconclusive: 23.1 µM [cytotoxic, single point]",
COc1ccc(Cl)cc1NC(=O)Cn1cccc1,"inconclusive: 13 µM [cytotoxic, partial curve]",
Cc1cc(C)cc(N(CC(=O)NC2CCCC2)C(=O)CCC(=O)Nc2nc(C)cs2)c1,,inactive: -27.1%
Cc1ccc(C(=O)N2CCN(c3cccc(C)c3C)CC2)o1,"inconclusive: 20.6 µM [cytotoxic, single point]",
O=C(Cc1c(O)c2ccccc2oc1=O)c1ccc(F)cc1,"inconclusive: 10.3 µM [cytotoxic, partial curve, poor fit]",
